# About 940 (67%) of roughly 1,400 compounds were called active. The set was probably picked from earlier hits. Inconclusive results, whose numbers are uncertain, are shown with a selection of clear calls. Calls follow the shape of the full dose curve. Potencies of inconclusive entries are doubtful fits and often do not repeat.
# By UniProt entry, the sequences of proteins in these tests, tags left out. Where a name states a change or a piece, a line headed by the entry shows the natural chain unless it says otherwise.
# UniProt P20594: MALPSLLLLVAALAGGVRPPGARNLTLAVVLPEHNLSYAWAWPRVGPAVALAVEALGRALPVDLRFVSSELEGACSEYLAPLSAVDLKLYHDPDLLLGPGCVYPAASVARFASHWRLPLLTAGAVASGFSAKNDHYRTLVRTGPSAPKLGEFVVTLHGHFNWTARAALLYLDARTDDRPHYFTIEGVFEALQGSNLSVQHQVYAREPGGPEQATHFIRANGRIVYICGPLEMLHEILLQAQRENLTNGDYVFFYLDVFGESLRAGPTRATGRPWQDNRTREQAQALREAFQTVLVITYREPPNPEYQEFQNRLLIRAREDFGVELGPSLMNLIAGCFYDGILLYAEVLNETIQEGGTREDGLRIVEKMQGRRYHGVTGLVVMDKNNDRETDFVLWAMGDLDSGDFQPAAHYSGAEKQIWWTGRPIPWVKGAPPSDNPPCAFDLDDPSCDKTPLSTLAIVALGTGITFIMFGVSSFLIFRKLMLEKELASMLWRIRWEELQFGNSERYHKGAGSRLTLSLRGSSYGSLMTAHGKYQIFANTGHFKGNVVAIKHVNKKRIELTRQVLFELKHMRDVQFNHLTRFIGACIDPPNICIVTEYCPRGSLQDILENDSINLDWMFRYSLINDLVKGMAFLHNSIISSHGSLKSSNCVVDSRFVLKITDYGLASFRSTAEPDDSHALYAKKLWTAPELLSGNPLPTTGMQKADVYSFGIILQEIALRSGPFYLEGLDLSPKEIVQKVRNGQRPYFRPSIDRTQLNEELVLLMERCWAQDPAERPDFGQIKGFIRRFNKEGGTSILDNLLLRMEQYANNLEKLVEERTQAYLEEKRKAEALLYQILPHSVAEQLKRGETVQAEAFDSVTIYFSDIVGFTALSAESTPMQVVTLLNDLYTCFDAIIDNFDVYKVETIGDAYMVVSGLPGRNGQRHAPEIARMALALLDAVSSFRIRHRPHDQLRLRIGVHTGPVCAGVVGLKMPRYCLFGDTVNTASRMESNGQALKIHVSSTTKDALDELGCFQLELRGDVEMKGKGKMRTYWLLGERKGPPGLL
# Target: Atrial natriuretic peptide receptor 2 (Homo sapiens) (UniProt P20594)
# Assay: Natriuretic polypeptide receptor (hNpr2) antagonism - Subtype selectivity assay; also: nearly all actives have a fitted effect of over 70% in size
# Settings: HEK293 hNpr2 GloSensor cGMP luminescence, CNP-stimulated; series mostly up to 57.6 µM; activity change, negative = inhibition: at the top concentration
# Method in brief: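 GloSensor cGMP luminescence, HEK293/hNpr2 cells. Compound 30 min at ambient temperature; 1 nM hNppC 20 min; pre- and post-agonist reads.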
# Potency is read from the fitted curve at half-maximal effect.
SMILES,Potency,"activity change, negative = inhibition"
CN(C)C(=O)c1ccc(CC2CCN(C(=O)CC3CCCCC3)CC2)cc1,active: 19.3 µM,–
N#Cc1ccc(CN2CCc3nc(C(=O)NCc4cccc(F)c4)oc3CC2)cc1,"inconclusive: 35.3 µM [inhibitor, partial curve]",–
O=C(c1ccccc1)N1CCC2(CC1)N=C(c1ccc(Br)cc1)NO2,"inconclusive: 21.7 µM [inhibitor, partial curve]",–
N#Cc1cccnc1N1CCC(CO)(Cc2ccccc2C(F)(F)F)CC1,active: 17.2 µM,–
O=C(Cc1ccc2c(c1)OCO2)N1CCNc2cnc(Nc3cccc(F)c3)nc2C1,active: 35.3 µM,–
Cc1nn(Cc2ccccc2)c(C)c1[C@@H]1C=C[C@@H](NS(=O)(=O)c2cccs2)C1,"inconclusive: 49.8 µM [inhibitor, single point]",–
Cc1nn(C)c(C)c1CCC(=O)N1CCC(Cc2noc(-c3ccc(F)cc3)n2)C1 (configuration not stated),"inconclusive: 38.5 µM [inhibitor, single point]",–
O=C(Nc1cccc2ccccc12)O[C@@H]1CO[C@H]2[C@@H]1OC[C@@H]2Nc1nccc(-c2cccc(F)c2)n1,"inconclusive: 27.3 µM [inhibitor, single point]",–
O=C(c1cc2ccccc2[nH]1)N1CCC2(C1)NC(=O)N(Cc1ccc(F)cc1)C2=O (configuration not stated),"inconclusive: 27.3 µM [inhibitor, partial curve]",–
COc1cccc(-c2noc(CC3CCN(C(=O)CCCc4ccccc4)CC3)n2)c1,"inconclusive: 27.3 µM [inhibitor, partial curve]",–
COc1ccc(CC(=O)Nc2ccc([C@@H](O)[C@H]3COCC(=O)N3Cc3ccc(C(F)(F)F)cc3)cc2)cc1,–,inactive: -17.8%
FC(F)(F)c1cccc2c(N3CCOC(C(F)(F)F)C3)ccnc12 (configuration not stated),"inconclusive: 19.3 µM [inhibitor, partial curve]",–
COc1cccc(N2CCN(C(=O)c3cc4n(n3)CC(c3ccc(Cl)cc3)OC4)CC2)c1 (configuration not stated),"inconclusive: 30.6 µM [inhibitor, single point]",–
COc1ccc(-c2noc(CC3CCN(C(=O)C4(c5ccc(OC)cc5)CC4)CC3)n2)cc1,active: 3.43 µM,–
Cc1ccc(N2CCN(C(=O)C3CCCN(c4cnn(Cc5ccccc5)c(=O)c4)C3)CC2)cc1 (configuration not stated),active: 19.3 µM,–
COc1nccc(N2CCC(CC(=O)NCc3ccc(F)c(Cl)c3)CC2)n1,active: 21.7 µM,–

SMILES,Potency,"activity change, negative = inhibition"
CC(C)c1cccc(NC(=O)C2CCN(C(=O)c3ncn4c3COC(c3ccc(F)cc3)C4)CC2)c1 (configuration not stated),"inconclusive: 15.3 µM [inhibitor, partial curve]",–
Cc1cc(F)ccc1NC(=O)c1cc2n(n1)CC(c1ccc(Br)cc1)OC2 (configuration not stated),"inconclusive: 27.3 µM [inhibitor, single point]",–
COc1ccc(CN2CC3(CCN(C(=O)Nc4cccc(C(F)(F)F)c4)CC3)C2=O)cc1,"inconclusive: 21.7 µM [inhibitor, partial curve]",–
O=C(NCc1ccc(F)c(Cl)c1)c1cc2n(n1)CC(c1ccc(Cl)cc1)OC2 (configuration not stated),–,inactive: -27.5%
Cc1ccc(Cl)cc1NC(=O)c1cnc(-c2ccccc2)nc1-c1ccncc1,"inconclusive: 17.2 µM [inhibitor, partial curve]",–
CCc1nccn1CC(=O)NC(C)c1cnn(-c2ccccc2C)c1C (configuration not stated),"inconclusive: 15.3 µM [inhibitor, partial curve, poor fit]",–
O=C(NC1CCN(c2cc(-c3ccc(F)cc3)[nH]n2)CC1)c1ccc(F)c(Cl)c1,"inconclusive: 34.3 µM [inhibitor, single point]",–
Cn1cc(-c2cccc(O)c2)c2nc(COc3ccc(Cl)cc3)cn2c1=O,"inconclusive: 39.6 µM [inhibitor, partial curve]",–
CCc1ccc(CN2CCCC23Cc2ccccc2CNC3=O)s1 (configuration not stated),–,inactive: -5.12%
CCc1noc(-c2cn(C3CCN(C(=O)c4ccc(C(C)(C)C)cc4)C3)nn2)n1 (configuration not stated),"inconclusive: 27.3 µM [inhibitor, partial curve]",–
CC(C)CN[C@H]1CO[C@H]2[C@@H]1OC[C@@H]2Nc1nccc(-c2cccs2)n1,"inconclusive: 31.4 µM [inhibitor, partial curve]",–
CCOc1ccc(NC(=O)CCC2CCN(c3cc(NC4CC4)ncn3)CC2)cc1,"inconclusive: 17.2 µM [inhibitor, partial curve]",–
CN(C)C(=O)c1cc(-c2ccccc2F)cc2c1OCCN2Cc1cccnc1,–,inactive: -24.8% [at 86.2 µM]
O=C(NCc1cccc(F)c1)c1nc2c(o1)CCN(Cc1cc(F)ccc1F)CC2,"inconclusive: 55.9 µM [inhibitor, single point]",–
O=C1COc2ccc(Nc3ccc(Cl)cc3)nc2CN1Cc1nc2ccccc2s1,"inconclusive: 44.4 µM [inhibitor, single point]",–
CCC[C@H]1CN(C(=O)c2ccccc2Cc2ccc(C)cc2)C[C@@H]1N,"inconclusive: 19.3 µM [inhibitor, partial curve]",–

# 2 records picked at random from those above, as already listed:
SMILES,Potency,"activity change, negative = inhibition"
COc1ccc(CN2CC3(CCN(C(=O)Nc4cccc(C(F)(F)F)c4)CC3)C2=O)cc1,"inconclusive: 21.7 µM [inhibitor, partial curve]",–
CCC[C@H]1CN(C(=O)c2ccccc2Cc2ccc(C)cc2)C[C@@H]1N,"inconclusive: 19.3 µM [inhibitor, partial curve]",–

# — PubChem BioAssay AID1347046 (National Center for Advancing Translational Sciences (NCATS), 2019)
